Experimental data: the supplement of paper PMC5662767
Structures can show the parent of a compound that is named as a salt. Some of the results follow. Plates or batches differ in their baseline, so values are only roughly comparable.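 Smoothened with circularly permuted GFP in its cytoplasmic tail is carried by a clonal Drosophila S2 line; fluorescence appears when Hh-driven phosphorylation opens an inhibitory loop. Per-cell signal, read by flow cytometry, was scaled to Hh-stimulated untreated cells. Hits were consistent fluorescence-shifting groups of inhibitors sharing pathway targets, not single compounds.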

The molecules below were run on Drosophila S2 cl14 SmoIP sensor cells (assay: normalized SmoIP GFP fluorescence (untreated unstimulated = 0%, untreated Hh-stimulated = 100%); higher = more Smo activation sensor fluorescence). Settings: stimulation: Hh conditioned medium (+Hh); compound concentration: 15 uM; 24 h.

Structure (SMILES) | normalized SmoIP GFP fluorescence
CCN(CC)CCCC(C)Nc1nc(C)cc(Nc2ccc3nc(C)cc(N)c3c2)n1 (stereo not given) | 162%
CC(=O)[C@H]1CC[C@H]2[C@@H]3CC=C4C[C@@H](O)CC[C@]4(C)[C@H]3CC[C@]12C [pregnenolone] | 157%
NC(=S)N/N=C/c1ncccc1N [triapine] | 146%
CNC(=O)c1cc(COc2nnc(Nc3ccc(Cl)cc3)c3ccoc23)ccn1 [Telatinib-BAY-57-9352] | 221%
COc1c(C)cnc(Cn2cnc3c(Cl)nc(N)nc32)c1C | 71.5%
COCCCC/C(=N\OCCN)c1ccc(C(F)(F)F)cc1 [Fluvoxamine-maleate] | 136%
CCC(=O)NCC[C@@H]1CCc2ccc3c(c21)CCO3 [Ramelteon] | 137%
Cc1cc(N2CCOCC2)ccc1Nc1nc(NC2CCCCC2)c2[nH]cnc2n1 | 151%
COc1ccc(C2CNC(=O)C2)cc1OC1CCCC1 (stereo not given) [Rolipram] | 141%
Nc1cc(C(F)(F)F)c(-c2cc(N3CCOCC3)nc(N3CCOCC3)n2)cn1 | 70.3%
C[C@H](N[C@@H](CCc1ccccc1)C(=O)O)C(=O)N1CCC[C@H]1C(=O)O [Enalaprilat] | 130%
OCc1ccc(-c2ccc(-c3ccc(CO)s3)o2)s1 | 126%
CC(C)(C#N)c1cc(Cn2cncn2)cc(C(C)(C)C#N)c1 [Anastrozole] | 138%
NC(=O)c1noc([C@H](CCCC2CCCCC2)CC(=O)NO)n1 | 138%
COc1cc(Br)c(Nc2nc(-c3c(C)nc4ncccn34)cs2)c(Br)c1 | 137%
CC(C)c1noc(N2CCC(COc3ccc(-c4ccc(S(C)(=O)=O)cc4)nc3)CC2)n1 | 202%
CS(=O)(=O)N1CCc2c(-c3cnc(N)nc3)nc(N3CCOCC3)nc21 | 76.8%
CC(C)(C)C#Cc1cc(N(C(=O)[C@H]2CC[C@H](C)CC2)[C@H]2CC[C@H](O)CC2)c(C(=O)O)s1 | 146%
NC(=O)C(c1ccccc1)(c1ccccc1)[C@@H]1CCN(CCc2ccc3c(c2)CCO3)C1 [darifenacin-hydrobromide] | 154%
C[C@@H]1COC(Nc2ccc3ncnc(Nc4ccc(OCc5nccs5)c(Cl)c4)c3c2)=N1 | 163%

Structure (SMILES) | normalized SmoIP GFP fluorescence
Cc1nc(C(=O)NCC(=O)O)c(O)c2ccc(Oc3ccccc3)cc12 | 155%
O=S(=O)(c1ccccc1)N(CC(F)(F)F)c1ccc(C(O)(C(F)(F)F)C(F)(F)F)cc1 | 119%
O=C(NC(NC(=S)Nc1ccc(F)c([N+](=O)[O-])c1)C(Cl)(Cl)Cl)C(c1ccccc1)c1ccccc1 (stereo not given) | 60%
O=C(NC[C@H]1CN(c2ccc(N3CCOCC3=O)cc2)C(=O)O1)c1ccc(Cl)s1 [Rivaroxaban] | 112%
CC1=C(C(=O)Nc2cc3cn[nH]c3cc2F)C(c2ccc(C(F)(F)F)cc2)CC(=O)N1 (stereo not given) | 159%
CC1(C)CCC(CN2CCN(c3ccc(C(=O)NS(=O)(=O)c4ccc(NCC5CCOCC5)c([N+](=O)[O-])c4)c(Oc4cnc5[nH]ccc5c4)c3)CC2)=C(c2ccc(Cl)cc2)C1 | 105%
CC(C)n1nc(-c2cc3cc(O)ccc3[nH]2)c2c(N)ncnc21 | 84.2%
N#Cc1c(Oc2ccc(F)c(NC(=O)Cc3cccc(C(F)(F)F)c3)c2)ccc2nc(NC(=O)C3CC3)sc12 | 274%
CNC(CC(=O)O)C(=O)O (stereo not drawn) [nmda-n-methyl-d-aspartic-acid] | 112%
CCCCCCCCc1ccc(CCC(N)(CO)CO)cc1 | 132%
Cc1nn(-c2ccccc2)c(C)c1C=NN1CCN(Cc2ccccc2)CC1 [sant-1] | 119%
COc1cc(Nc2ncc(F)c(Nc3ccc4c(n3)NC(=O)C(C)(C)O4)n2)cc(OC)c1OC [R406(free-base)] | 124%
Cc1ccc(=O)n(-c2ccccc2)c1 [pirfenidone] | 103%
CC(C)(CO)c1cc2cc(NC(=O)C3(c4ccc5c(c4)OC(F)(F)O5)CC3)c(F)cc2n1C[C@@H](O)CO | 124%
O=C(/C=C/c1ccc(O)c(O)c1)c1ccc(O)cc1O [butein] | 84.2%
O=C(Nc1ccncc1)c1cc([N+](=O)[O-])ccc1Cl | 129%
CC1(C)CC(=O)c2c(C(F)(F)F)nn(-c3ccc(C(N)=O)c(N[C@H]4CC[C@H](O)CC4)c3)c2C1 | 247%
C[C@H]1c2cccc(O)c2C(=O)C2=C(O)[C@]3(O)C(=O)C(C(N)=O)=C(O)[C@@H](N(C)C)[C@@H]3[C@@H](O)[C@@H]21 [doxycycline-hcl] | 130%
Nc1nc(N)nc(-c2cc(Cl)ccc2Cl)n1 [Irsogladine-maleate] | 127%
Nc1cccc2c1CN(C1CCC(=O)NC1=O)C2=O (stereo not given) [Lenalidomide] | 147%

Same assay, conditions: stimulation: mock conditioned medium (-Hh); compound concentration: 15 uM; 24 h

Structure (SMILES) | normalized SmoIP GFP fluorescence
CCN(CC)CCCC(C)Nc1nc(C)cc(Nc2ccc3nc(C)cc(N)c3c2)n1 (stereo not given) | 2.5%
CC(=O)[C@H]1CC[C@H]2[C@@H]3CC=C4C[C@@H](O)CC[C@]4(C)[C@H]3CC[C@]12C [pregnenolone] | -11.7%
NC(=S)N/N=C/c1ncccc1N [triapine] | 4.04%
CNC(=O)c1cc(COc2nnc(Nc3ccc(Cl)cc3)c3ccoc23)ccn1 [Telatinib-BAY-57-9352] | 90.3%
COc1c(C)cnc(Cn2cnc3c(Cl)nc(N)nc32)c1C | 67.1%
COCCCC/C(=N\OCCN)c1ccc(C(F)(F)F)cc1 [Fluvoxamine-maleate] | 24.3%
CCC(=O)NCC[C@@H]1CCc2ccc3c(c21)CCO3 [Ramelteon] | 2.43%
Cc1cc(N2CCOCC2)ccc1Nc1nc(NC2CCCCC2)c2[nH]cnc2n1 | 11.6%
COc1ccc(C2CNC(=O)C2)cc1OC1CCCC1 (stereo not given) [Rolipram] | -2.64%
Nc1cc(C(F)(F)F)c(-c2cc(N3CCOCC3)nc(N3CCOCC3)n2)cn1 | 29.2%
C[C@H](N[C@@H](CCc1ccccc1)C(=O)O)C(=O)N1CCC[C@H]1C(=O)O [Enalaprilat] | 10.2%
OCc1ccc(-c2ccc(-c3ccc(CO)s3)o2)s1 | 9.51%
CC(C)(C#N)c1cc(Cn2cncn2)cc(C(C)(C)C#N)c1 [Anastrozole] | 0.489%
NC(=O)c1noc([C@H](CCCC2CCCCC2)CC(=O)NO)n1 | -4.35%
COc1cc(Br)c(Nc2nc(-c3c(C)nc4ncccn34)cs2)c(Br)c1 | 20.6%
CC(C)c1noc(N2CCC(COc3ccc(-c4ccc(S(C)(=O)=O)cc4)nc3)CC2)n1 | 48.7%
CS(=O)(=O)N1CCc2c(-c3cnc(N)nc3)nc(N3CCOCC3)nc21 | -3.72%
CC(C)(C)C#Cc1cc(N(C(=O)[C@H]2CC[C@H](C)CC2)[C@H]2CC[C@H](O)CC2)c(C(=O)O)s1 | 48.1%
NC(=O)C(c1ccccc1)(c1ccccc1)[C@@H]1CCN(CCc2ccc3c(c2)CCO3)C1 [darifenacin-hydrobromide] | 27.2%
C[C@@H]1COC(Nc2ccc3ncnc(Nc4ccc(OCc5nccs5)c(Cl)c4)c3c2)=N1 | 23.9%

Structure (SMILES) | normalized SmoIP GFP fluorescence
Cc1nc(C(=O)NCC(=O)O)c(O)c2ccc(Oc3ccccc3)cc12 | 16.8%
O=S(=O)(c1ccccc1)N(CC(F)(F)F)c1ccc(C(O)(C(F)(F)F)C(F)(F)F)cc1 | 17.5%
O=C(NC(NC(=S)Nc1ccc(F)c([N+](=O)[O-])c1)C(Cl)(Cl)Cl)C(c1ccccc1)c1ccccc1 (stereo not given) | 64.8%
O=C(NC[C@H]1CN(c2ccc(N3CCOCC3=O)cc2)C(=O)O1)c1ccc(Cl)s1 [Rivaroxaban] | 3.66%
CC1=C(C(=O)Nc2cc3cn[nH]c3cc2F)C(c2ccc(C(F)(F)F)cc2)CC(=O)N1 (stereo not given) | 6.2%
CC1(C)CCC(CN2CCN(c3ccc(C(=O)NS(=O)(=O)c4ccc(NCC5CCOCC5)c([N+](=O)[O-])c4)c(Oc4cnc5[nH]ccc5c4)c3)CC2)=C(c2ccc(Cl)cc2)C1 | -2.31%
CC(C)n1nc(-c2cc3cc(O)ccc3[nH]2)c2c(N)ncnc21 | -1.56%
N#Cc1c(Oc2ccc(F)c(NC(=O)Cc3cccc(C(F)(F)F)c3)c2)ccc2nc(NC(=O)C3CC3)sc12 | 15.5%
CNC(CC(=O)O)C(=O)O (stereo not drawn) [nmda-n-methyl-d-aspartic-acid] | -2.2%
CCCCCCCCc1ccc(CCC(N)(CO)CO)cc1 | 26.7%
Cc1nn(-c2ccccc2)c(C)c1C=NN1CCN(Cc2ccccc2)CC1 [sant-1] | 4.91%
COc1cc(Nc2ncc(F)c(Nc3ccc4c(n3)NC(=O)C(C)(C)O4)n2)cc(OC)c1OC [R406(free-base)] | 14.5%
Cc1ccc(=O)n(-c2ccccc2)c1 [pirfenidone] | -4.47%
CC(C)(CO)c1cc2cc(NC(=O)C3(c4ccc5c(c4)OC(F)(F)O5)CC3)c(F)cc2n1C[C@@H](O)CO | 9.9%
O=C(/C=C/c1ccc(O)c(O)c1)c1ccc(O)cc1O [butein] | 4.93%
O=C(Nc1ccncc1)c1cc([N+](=O)[O-])ccc1Cl | 4.39%
CC1(C)CC(=O)c2c(C(F)(F)F)nn(-c3ccc(C(N)=O)c(N[C@H]4CC[C@H](O)CC4)c3)c2C1 | 41%
C[C@H]1c2cccc(O)c2C(=O)C2=C(O)[C@]3(O)C(=O)C(C(N)=O)=C(O)[C@@H](N(C)C)[C@@H]3[C@@H](O)[C@@H]21 [doxycycline-hcl] | 7.18%
Nc1nc(N)nc(-c2cc(Cl)ccc2Cl)n1 [Irsogladine-maleate] | -7.42%
Nc1cccc2c1CN(C1CCC(=O)NC1=O)C2=O (stereo not given) [Lenalidomide] | 9.86%
